Test results published in article PMC6925144, “A prospective compound screening contest identified broader inhibitors for Sirtuin 1” (Scientific Reports, 2019).
Whole data set: some 3,200 compounds, median “TSA(without NAD+) / Primary screening (TSA) / delta Tm (K)” near -0.07, cut for the highest 2% near 0.37. This is one part of the list.

Chains of the proteins cited; added tags and fusions are not shown. Residues count along the entry.
UniProt Q96EB6, 2-747 limits assumed: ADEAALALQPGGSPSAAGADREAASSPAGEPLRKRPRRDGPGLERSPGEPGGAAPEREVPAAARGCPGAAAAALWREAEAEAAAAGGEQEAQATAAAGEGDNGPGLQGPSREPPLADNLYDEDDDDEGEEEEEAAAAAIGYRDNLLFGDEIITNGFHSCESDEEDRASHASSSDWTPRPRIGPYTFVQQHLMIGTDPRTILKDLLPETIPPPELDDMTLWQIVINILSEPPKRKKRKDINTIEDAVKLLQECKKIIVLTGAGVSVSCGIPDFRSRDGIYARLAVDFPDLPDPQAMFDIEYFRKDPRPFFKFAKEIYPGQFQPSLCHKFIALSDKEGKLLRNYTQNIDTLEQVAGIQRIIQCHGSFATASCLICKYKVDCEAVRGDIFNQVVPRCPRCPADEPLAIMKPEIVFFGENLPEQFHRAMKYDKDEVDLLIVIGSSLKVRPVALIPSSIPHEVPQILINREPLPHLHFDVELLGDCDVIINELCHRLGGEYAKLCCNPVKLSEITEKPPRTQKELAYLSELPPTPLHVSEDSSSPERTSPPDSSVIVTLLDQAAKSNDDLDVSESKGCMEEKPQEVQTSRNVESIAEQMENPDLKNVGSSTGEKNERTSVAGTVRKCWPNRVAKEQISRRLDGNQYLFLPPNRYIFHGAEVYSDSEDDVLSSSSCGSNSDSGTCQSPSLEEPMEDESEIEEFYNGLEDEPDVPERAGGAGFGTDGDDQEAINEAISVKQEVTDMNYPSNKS

molecular target: NAD-dependent deacetylase Sirtuin 1 (human, UniProt Q96EB6); experiment: primary screen, delta tm; design: single well (n = 1); conditions: 10 µM
Outline: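 Thermal shift of Sirtuin 1 measured without NAD+, compound at 10 µM (n = 1); value is ΔTm, with hits defined as ΔTm > 0.45 K or < −1.5 K. Hits retested at 5, 10, 20 µM (n = 4) and counterscreened on bovine carbonic anhydrase and ABL1 SH2 domain.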

For Cc1ccccc1NC(=O)CN1CC=C(c2c[nH]c3ccccc23)CC1, which “TSA(without NAD+) / Primary screening (TSA) / delta Tm (K)” value is on record?
The value was 0.19 K.

With CNC(=O)CCN(C)S(=O)(=O)c1cccc(Br)c1 as the compound, how does the “TSA(without NAD+) / Primary screening (TSA) / delta Tm (K)” value read?
Its value is 0.07 K.

CC1CN(C(=O)CC23CC4CC(CC(O)(C4)C2)C3)CC(c2ccccc2)O1 (stereo not shown) was tested. Which “TSA(without NAD+) / Primary screening (TSA) / delta Tm (K)” value did it give?
Its value is -0.12 K.

How did the “TSA(without NAD+) / Primary screening (TSA) / delta Tm (K)” value turn out when NCC(Cc1ccccn1)C(=O)O (stereo not shown) was run?
Its value is 0.02 K.

How did the “TSA(without NAD+) / Primary screening (TSA) / delta Tm (K)” value turn out when Cc1ccc(N(C)S(=O)(=O)c2cccc(C(=O)Nc3ccccc3Cl)c2)cc1 was run?
Its value is 0.07 K.

With Cc1ccc(NC(=O)NCCc2cccc(O)c2)cc1NC(=O)NCCc1cccc(O)c1 as the compound, how does the “TSA(without NAD+) / Primary screening (TSA) / delta Tm (K)” value read?
The value was 0.38 K.

How did the “TSA(without NAD+) / Primary screening (TSA) / delta Tm (K)” value turn out when CCC(CNC(=O)NCc1noc(C)n1)N1CCc2ccccc2C1 (stereo not shown) was run?
The value was -0.12 K.

NC(=O)C1CCN(c2ncnc3sc4c(c23)CCCCC4)CC1 was tested. Which “TSA(without NAD+) / Primary screening (TSA) / delta Tm (K)” value did it give?
The value was 0.36 K.

For NC(=O)C1CCCN(C(=O)c2cc3c(Cl)c(Cl)ccc3[nH]2)C1 (stereo not shown), which “TSA(without NAD+) / Primary screening (TSA) / delta Tm (K)” value is on record?
The value was -0.02 K.

For Cc1cn2c3c(=O)n(CCC(C)C)c(=O)n(C)c3nc2n1CCC(C)C, which “TSA(without NAD+) / Primary screening (TSA) / delta Tm (K)” value is on record?
The value was -0.17 K.

Which “TSA(without NAD+) / Primary screening (TSA) / delta Tm (K)” value does the source give for Cc1ccc(C)c(NC(=O)COc2ccc3c4c(c(=O)oc3c2)CCC4)c1 here?
The value was -0.01 K.

For O=C(CN1CCN(C(=O)CCc2c[nH]c3ccccc23)CC1)Nc1ccccc1, which “TSA(without NAD+) / Primary screening (TSA) / delta Tm (K)” value is on record?
Its value is -0.23 K.

Which “TSA(without NAD+) / Primary screening (TSA) / delta Tm (K)” value does the source give for CC(=O)N1CCCc2cc(S(=O)(=O)Nc3cccc4ccccc34)ccc21 here?
Its value is -0.05 K.

Which “TSA(without NAD+) / Primary screening (TSA) / delta Tm (K)” value does the source give for COc1cccc(NC(=O)c2cccc(S(=O)(=O)N(C)c3ccc(C)cc3)c2)c1 here?
The value was -0.02 K.

For O=C(NC1CC1)C1CCCN1C(=O)c1n[nH]c2ccccc12 (stereo not shown), which “TSA(without NAD+) / Primary screening (TSA) / delta Tm (K)” value is on record?
The value was -0.22 K.

For Cc1nc2cc(C(=O)Nc3ccc(NC(=O)N4CCCCCC4)cc3)ccc2n1C, which “TSA(without NAD+) / Primary screening (TSA) / delta Tm (K)” value is on record?
The value was -0.04 K.

How did the “TSA(without NAD+) / Primary screening (TSA) / delta Tm (K)” value turn out when N#Cc1ccccc1S(=O)(=O)N1CCCC(c2cc(C(N)=O)[nH]n2)C1 (stereo not shown) was run?
Its value is -0.22 K.

Cc1ccc(N(C)S(=O)(=O)c2cccc(C(=O)Nc3ncc(C)s3)c2)cc1 was tested. Which “TSA(without NAD+) / Primary screening (TSA) / delta Tm (K)” value did it give?
Its value is -0.12 K.

With CC(NC(=O)Cn1ccc(=O)c2ccccc21)C12CC3CC(CC(C3)C1)C2 (stereo not shown) as the compound, how does the “TSA(without NAD+) / Primary screening (TSA) / delta Tm (K)” value read?
Its value is 0.05 K.

How did the “TSA(without NAD+) / Primary screening (TSA) / delta Tm (K)” value turn out when O=C(NCCS(=O)(=O)N1CCc2ccccc21)Nc1ccn(Cc2ccccc2)n1 was run?
The value was 0.07 K.

With c1ccc(-n2ncc3c(N4CCCC4)ncnc32)cc1 as the compound, how does the “TSA(without NAD+) / Primary screening (TSA) / delta Tm (K)” value read?
The value was -0.12 K.

CSc1nnnn1-c1cccc(NC(=O)NC(C)C2CCCO2)c1 (stereo not shown) was tested. Which “TSA(without NAD+) / Primary screening (TSA) / delta Tm (K)” value did it give?
The value was -0.17 K.

For CC(C)(C)CC(NCc1ccc(S(=O)(=O)CCO)cc1)C1CC1 (stereo not shown), which “TSA(without NAD+) / Primary screening (TSA) / delta Tm (K)” value is on record?
The value was -0.01 K.

For c1ccc2c(c1)CCC/C2=N/Nc1nc2ccccc2[nH]1, which “TSA(without NAD+) / Primary screening (TSA) / delta Tm (K)” value is on record?
The value was -0.08 K.

Which “TSA(without NAD+) / Primary screening (TSA) / delta Tm (K)” value does the source give for CC(OC(=O)c1ccccc1NS(=O)(=O)c1ccc2c(c1)OCCO2)C(=O)NC(C)C1CC2CCC1C2 (stereo not shown) here?
The value was -0.08 K.

For CC(C)(C)C(N)CN (stereo not shown), which “TSA(without NAD+) / Primary screening (TSA) / delta Tm (K)” value is on record?
The value was -0.18 K.

With CCCNCC as the compound, how does the “TSA(without NAD+) / Primary screening (TSA) / delta Tm (K)” value read?
The value was -0.05 K.

How did the “TSA(without NAD+) / Primary screening (TSA) / delta Tm (K)” value turn out when CCOc1cc(/C=N/NC(=O)c2cc3c(s2)CCCC3)ccc1OCC(=O)Nc1cccc(C(F)(F)F)c1 was run?
The value was 5.11 K.

How did the “TSA(without NAD+) / Primary screening (TSA) / delta Tm (K)” value turn out when CC1CCc2c(sc3ncnc(N4CCCN(CC(N)=O)CC4)c23)C1 (stereo not shown) was run?
The value was -0.18 K.

How did the “TSA(without NAD+) / Primary screening (TSA) / delta Tm (K)” value turn out when Cc1c(CCO)c(=O)n2c([nH]c3ccccc32)c1C#N was run?
Its value is 0.07 K.

Which “TSA(without NAD+) / Primary screening (TSA) / delta Tm (K)” value does the source give for COc1ccc(/C=C2/COc3ccc(Br)cc3C2=O)c(OC)c1OC here?
The value was -0.15 K.

With O=C(O)C1CC(=O)N(c2ccc(S(=O)(=O)Nc3ccc(F)c(F)c3)cc2)C1 (stereo not shown) as the compound, how does the “TSA(without NAD+) / Primary screening (TSA) / delta Tm (K)” value read?
The value was 0.08 K.

How did the “TSA(without NAD+) / Primary screening (TSA) / delta Tm (K)” value turn out when Cc1cccc(C2NC(=O)c3ccccc3N2C)c1 (stereo not shown) was run?
The value was -0.07 K.

For CCc1cc2c(N3CCCC(c4cc(C(N)=O)[nH]n4)C3)ncnc2s1 (stereo not shown), which “TSA(without NAD+) / Primary screening (TSA) / delta Tm (K)” value is on record?
The value was 0.09 K.

CC(C)CCCC(C)NC(=O)c1cc(-c2ccccc2)nc2c(C(N)=O)ncn12 (stereo not shown) was tested. Which “TSA(without NAD+) / Primary screening (TSA) / delta Tm (K)” value did it give?
The value was 0.12 K.

With CC1Oc2ccc(NC(=O)c3cccc(S(=O)(=O)N(C)c4ccccc4)c3)cc2NC1=O (stereo not shown) as the compound, how does the “TSA(without NAD+) / Primary screening (TSA) / delta Tm (K)” value read?
The value was -0.02 K.

COc1ccccc1C(=O)NCC(=O)OCC(=O)Nc1ccc(C(N)=O)cc1 was tested. Which “TSA(without NAD+) / Primary screening (TSA) / delta Tm (K)” value did it give?
The value was -0.11 K.

Which “TSA(without NAD+) / Primary screening (TSA) / delta Tm (K)” value does the source give for Sc1ncnc2c1oc1ccccc12 here?
Its value is -0.23 K.

For CCn1nc(C(=O)NC2CCCc3ccccc32)c2ccccc2c1=O (stereo not shown), which “TSA(without NAD+) / Primary screening (TSA) / delta Tm (K)” value is on record?
The value was -0.44 K.

With NC(=O)COC(=O)CC1Sc2ccc(C(F)(F)F)cc2NC1=O (stereo not shown) as the compound, how does the “TSA(without NAD+) / Primary screening (TSA) / delta Tm (K)” value read?
The value was 0.02 K.

How did the “TSA(without NAD+) / Primary screening (TSA) / delta Tm (K)” value turn out when OC(CNCCc1c[nH]c2ccccc12)c1ccccc1 (stereo not shown) was run?
The value was -0.23 K.

With N#C/C(=C/c1ccc(-c2cc(Cl)ccc2Cl)o1)C(=O)Nc1cccc2ncccc12 as the compound, how does the “TSA(without NAD+) / Primary screening (TSA) / delta Tm (K)” value read?
The value was -0.12 K.

For Cc1sc2ncnc(N3CCC(C(=O)N4CCC(C(N)=O)CC4)CC3)c2c1C, which “TSA(without NAD+) / Primary screening (TSA) / delta Tm (K)” value is on record?
Its value is 0.06 K.

For CC(C)c1ccc(OCc2nnc(SCC(=O)Nc3ccccc3-c3ccccc3)n2N)cc1, which “TSA(without NAD+) / Primary screening (TSA) / delta Tm (K)” value is on record?
Its value is -0.15 K.

With O=C(O)C1CC(=O)N(c2ccc(S(=O)(=O)N3CCCc4cccc(F)c43)cc2)C1 (stereo not shown) as the compound, how does the “TSA(without NAD+) / Primary screening (TSA) / delta Tm (K)” value read?
Its value is 0.07 K.

CC(=O)N(C)CC(=O)NCC1CC2c3ccccc3C1c1ccccc12 (stereo not shown) was tested. Which “TSA(without NAD+) / Primary screening (TSA) / delta Tm (K)” value did it give?
The value was -0.08 K.

Which “TSA(without NAD+) / Primary screening (TSA) / delta Tm (K)” value does the source give for CC1CCN(C)c2ccccc2N1CCOc1ccc(S(N)(=O)=O)cc1 (stereo not shown) here?
Its value is -0.02 K.

CC(OC(=O)c1cccc(S(=O)(=O)NCc2ccccc2)c1)C(=O)NC12CC3CC(CC(C3)C1)C2 (stereo not shown) was tested. Which “TSA(without NAD+) / Primary screening (TSA) / delta Tm (K)” value did it give?
The value was -0.03 K.

O=C(O)CCn1cc(C=C2C(=O)NC(=S)NC2=O)c(-c2cccc(Br)c2)n1 was tested. Which “TSA(without NAD+) / Primary screening (TSA) / delta Tm (K)” value did it give?
Its value is -0.03 K.

For O=C(c1cnc2ccccc2n1)N1CCCC1c1nc2ccccc2s1 (stereo not shown), which “TSA(without NAD+) / Primary screening (TSA) / delta Tm (K)” value is on record?
The value was -0.04 K.

Which “TSA(without NAD+) / Primary screening (TSA) / delta Tm (K)” value does the source give for CN(C)c1ccc([N+](=O)[O-])cn1 here?
Its value is -0.17 K.

How did the “TSA(without NAD+) / Primary screening (TSA) / delta Tm (K)” value turn out when N#Cc1ccccc1Sc1ccccc1C(=O)Nc1ccc(-c2cn3cccnc3n2)cc1 was run?
The value was -0.14 K.

O=C(CCC(=O)c1ccccc1)Nc1ccccc1Cc1ccccc1 was tested. Which “TSA(without NAD+) / Primary screening (TSA) / delta Tm (K)” value did it give?
Its value is -0.15 K.

With CCC(=O)N1N=C(c2ccco2)CC1c1ccc(N(C)C)cc1 (stereo not shown) as the compound, how does the “TSA(without NAD+) / Primary screening (TSA) / delta Tm (K)” value read?
The value was 0.08 K.

How did the “TSA(without NAD+) / Primary screening (TSA) / delta Tm (K)” value turn out when O=C(NCc1nnc2ccccn12)c1cn(Cc2ccccc2)nc1-c1ccc(Cl)cc1 was run?
Its value is 0.06 K.

For C=CCOc1ccc(C2C(C(=O)c3ccc(C)o3)=C(O)C(=O)N2CCCN2CCOCC2)cc1 (stereo not shown), which “TSA(without NAD+) / Primary screening (TSA) / delta Tm (K)” value is on record?
Its value is -0.01 K.

For Cc1cccc(Cc2cnc(NC(=O)c3ccc(COc4ccc5c(C)cc(=O)oc5c4)cc3)s2)c1, which “TSA(without NAD+) / Primary screening (TSA) / delta Tm (K)” value is on record?
Its value is 0.07 K.

With N=c1nc[nH]c2c1ncn2CCC(N)=O as the compound, how does the “TSA(without NAD+) / Primary screening (TSA) / delta Tm (K)” value read?
Its value is -0.07 K.
